In US20170015649A1, “N-Thio-anthranilamid compounds and their use as pesticides” (BASF SE, priority 2005, published 2017):
Some results were stated once for a whole list of compounds, not compound by compound. At least one compound was matched to its structure with a doubt left.

Legend:
[1] = system: Southern Armyworm (Spodoptera eridania), 2nd Instar Larvae; format: in vivo; conditions: 300 ppm; leaf dipped; at 5 days
Protocol: The active compounds were formulated for testing the activity against insects and arachnids as a 10.000 ppm solution in a mixture of 35% acetone and water, which was diluted with water, if needed.
A Sieva lima bean leaf was dipped in the test solution and allowed to dry. The leaf was then placed in a petri dish containing a filter paper on the bottom and ten 2nd instar caterpillars. At 5 days, observations are made of mortality and reduced feeding.

[2] = system: Diamond Back Moth (Plutella xylostella); test: Activity against diamond back moth, cabbage leaf disk dip; format: in vivo; conditions: 300 ppm; leaf disk dipped; third instar larvae; after 72 h
Protocol: The active compounds were formulated in 50:50 acetone:water and 0.1% (vol/vol) Alkamuls EL 620 surfactant. A 6 cm leaf disk of cabbage leaves was dipped in the test solution for 3 seconds and allowed to air dry in a Petri plate lined with moist filter paper. The leaf disk was inoculated with 10 third instar larvae and kept at 25-27° C. and 50-60% humidity for 3 days. Mortality was assessed after 72 h of treatment.

[3] = system: Tobacco Budworm (Heliothis virescens); conditions: 2500 ppm; eggs sprayed with 10 μl test solution; 6 days

## CCN(C(C)C)S(=O)(=O)NC(=O)c1cc(Cl)cc(C)c1NC(=O)c1cc(Br)nn1-c1ncccc1Cl [I.1-1]
[1]
  mortality: over 75%
[2]
  mortality: over 75%
[3]
  mortality: over 75%

## Cc1cc(Cl)cc(C(=O)NS(=O)(=O)N(C)C2CCCCC2)c1NC(=O)c1cc(Br)nn1-c1ncccc1Cl [I.1-10]
[1]
  mortality: over 75%
[3]
  mortality: over 75%

## Cc1cc(Cl)cc(C(=O)NS(=O)(=O)N(C)CC(C)C)c1NC(=O)c1cc(Br)nn1-c1ncccc1Cl [I.1-13]
[1]
  mortality: over 75%
[3]
  mortality: over 75%

## Cc1cc(Cl)cc(C(=O)NS(=O)(=O)N(C)CCc2ccccc2)c1NC(=O)c1cc(Br)nn1-c1ncccc1Cl [I.1-14]
[1]
  mortality: over 75%
[3]
  mortality: over 75%

## CCCN(CCOC)S(=O)(=O)NC(=O)c1cc(Cl)cc(C)c1NC(=O)c1cc(Br)nn1-c1ncccc1Cl [I.1-16]
[1]
  mortality: over 75%
[3]
  mortality: over 75%

## Cc1cccc(C(=O)NS(=O)(=O)N(C)C(C)C)c1NC(=O)c1cc(Br)nn1-c1ncccc1Cl [I.1-29]
[2]
  mortality: over 75%

## CCCN(CCOC)S(=O)(=O)NC(=O)c1cc(Cl)cc(C)c1NC(=O)c1cc(C(F)(F)F)nn1-c1ncccc1Cl [I.1-34]
[1]
  mortality: over 75%
[3]
  mortality: over 75%

## CCN(C1CCCCC1)S(=O)(=O)NC(=O)c1cc(Cl)cc(C)c1NC(=O)c1cc(C(F)(F)F)nn1-c1ncccc1Cl [I.1-36]
[1]
  mortality: over 75%
[3]
  mortality: over 75%

## Cc1cc(Cl)cc(C(=O)NS(=O)(=O)N(C(C)C)C(C)C)c1NC(=O)c1cc(C(F)(F)F)nn1-c1ncccc1Cl [I.1-39]
[1]
  mortality: over 75%
[3]
  mortality: over 75%

## CCCN(C(C)C)S(=O)(=O)NC(=O)c1cc(Cl)cc(C)c1NC(=O)c1cc(C(F)(F)F)nn1-c1ncccc1Cl [I.1-40]
[1]
  mortality: over 75%
[3]
  mortality: over 75%

## C#CCN(C)S(=O)(=O)NC(=O)c1cc(Cl)cc(C)c1NC(=O)c1cc(C(F)(F)F)nn1-c1ncccc1Cl [I.1-41]
[1]
  mortality: over 75%
[3]
  mortality: over 75%

## Cc1cc(Cl)cc(C(=O)NS(=O)(=O)N(C)CCc2ccccc2)c1NC(=O)c1cc(C(F)(F)F)nn1-c1ncccc1Cl [I.1-42]
[1]
  mortality: over 75%
[3]
  mortality: over 75%

## Cc1cc(Cl)cc(C(=O)NS(=O)(=O)N(C)CC(C)C)c1NC(=O)c1cc(C(F)(F)F)nn1-c1ncccc1Cl [I.1-46]
[1]
  mortality: over 75%
[3]
  mortality: over 75%

## Cc1cccc(C(=O)NS(=O)(=O)N(C(C)C)C(C)C)c1NC(=O)c1cc(C(F)(F)F)nn1-c1ncccc1Cl [I.1-54]
[1]
  mortality: over 75%
[3]
  mortality: over 75%

## C#CCN(C)S(=O)(=O)NC(=O)c1cccc(C)c1NC(=O)c1cc(C(F)(F)F)nn1-c1ncccc1Cl [I.1-57]
[1]
  mortality: over 75%

## Cc1cccc(C(=O)NS(=O)(=O)N(C)CC(C)C)c1NC(=O)c1cc(C(F)(F)F)nn1-c1ncccc1Cl [I.1-62]
[3]
  mortality: over 75%

## Cc1cccc(C(=O)NS(=O)(=O)N(C)C(C)C)c1NC(=O)c1cc(C(F)(F)F)nn1-c1ncccc1Cl [I.1-63]
[1]
  mortality: over 75%
[2]
  mortality: over 75%

## C=C(Cl)CN(CCC)S(=O)(=O)NC(=O)c1cc(Cl)cc(C)c1NC(=O)c1cc(C(F)(F)F)nn1-c1ncccc1Cl [I.1-66]
[1]
  mortality: over 75%
[3]
  mortality: over 75%

## C=C(Cl)CN(CCC)S(=O)(=O)NC(=O)c1cccc(C)c1NC(=O)c1cc(C(F)(F)F)nn1-c1ncccc1Cl [I.1-67]
[3]
  mortality: over 75%

## Cc1cc(C#N)cc(C(=O)N=S(C(C)C)C(C)C)c1NC(=O)c1cc(Br)nn1-c1ncccc1Cl [I.3-59]
[2]
  mortality: over 75%

## C=CS(CC)=NC(=O)c1cc(C#N)cc(C)c1NC(=O)c1cc(Br)nn1-c1ncccc1Cl (stereo not drawn) [I.3-62]
[2]
  mortality: over 75%

## CCC(C)S(C)=NC(=O)c1cc(C#N)cc(C)c1NC(=O)c1cc(Br)nn1-c1ncccc1Cl (stereo not drawn) [I.3-63]
[2]
  mortality: over 75%

## Cc1cc(C#N)cc(C(=O)N=S2CCCCC2)c1NC(=O)c1cc(Br)nn1-c1ncccc1Cl [I.4-19]
[2]
  mortality: over 75%
